Source: paper PMC9315428, “Distinctive in vitro ATP Hydrolysis Activity of AtVIPP1, a Chloroplastic ESCRT-III Superfamily Protein in Arabidopsis” (Frontiers in Plant Science, 2022)
No constants are given. Whether binding was seen depends on the method and setting. Some binding calls cover weakened binding; strength is not graded here. Tags and fused reporters may be left off the sequences shown.

What was measured:
[1] = molecular target: C-terminally His-tagged Arabidopsis VIPP1 (AtVIPP1-His), wild type, without its N-terminal transit peptide (Arabidopsis) (UniProt O80796); experiment: negative staining electron microscopy; purified AtVIPP1-His proteins (3.5-5.5 μg/μL) on carbon-stabilized grids, stained with 2% uranyl acetate or EM stainer, transmission EM; both purified
[2] = molecular target: C-terminally His-tagged Arabidopsis VIPP1 (AtVIPP1-His), wild type, without its N-terminal transit peptide (Arabidopsis) (UniProt O80796); experiment: sucrose density gradient centrifugation; 2 μg recombinant protein on a continuous 0.4-1.6 M sucrose gradient in 50 mM HEPES-NaOH pH 7.5, 50 mM KCl; 85,000 x g, 15 h, 4°C; 25 fractions from top to bottom, immunoblot with anti-VIPP1; both purified

B1: C-terminally His-tagged Arabidopsis VIPP1 (AtVIPP1-His), wild type, without its N-terminal transit peptide (protein, UniProt O80796 65-330)
chain: CNGHGATMNLFERFSRVVKSYANALISSFEDPEKILEQTVIEMNSDLTKMRQATAQVLASQKQLQNKYKAAQQSSDDWYKRAQLALAKGDEDLAREALKRRKSFADNATALKTQLDQQKGVVDNLVSNTRLLESKIQEAKAKKDTLLARARTAKTATKVQEMIGTVNTSGALSAFEKMEEKVMAMESEADALTQIGTDELEGKFQMLETSSVDDDLADLKKELSGSSKKGELPPGRSTVAASTRYPFKDSEIENELNELRRKANDF
In the case of B1, the binding [1] is reported as “binds” and the binding [2] is reported as “binds”.
